In PMC8270478:

Target: T1, HA-tagged VAL1 (VAL1::VAL1-3xHA) (Arabidopsis thaliana) (UniProt Q8W4L5)
T1 sequence: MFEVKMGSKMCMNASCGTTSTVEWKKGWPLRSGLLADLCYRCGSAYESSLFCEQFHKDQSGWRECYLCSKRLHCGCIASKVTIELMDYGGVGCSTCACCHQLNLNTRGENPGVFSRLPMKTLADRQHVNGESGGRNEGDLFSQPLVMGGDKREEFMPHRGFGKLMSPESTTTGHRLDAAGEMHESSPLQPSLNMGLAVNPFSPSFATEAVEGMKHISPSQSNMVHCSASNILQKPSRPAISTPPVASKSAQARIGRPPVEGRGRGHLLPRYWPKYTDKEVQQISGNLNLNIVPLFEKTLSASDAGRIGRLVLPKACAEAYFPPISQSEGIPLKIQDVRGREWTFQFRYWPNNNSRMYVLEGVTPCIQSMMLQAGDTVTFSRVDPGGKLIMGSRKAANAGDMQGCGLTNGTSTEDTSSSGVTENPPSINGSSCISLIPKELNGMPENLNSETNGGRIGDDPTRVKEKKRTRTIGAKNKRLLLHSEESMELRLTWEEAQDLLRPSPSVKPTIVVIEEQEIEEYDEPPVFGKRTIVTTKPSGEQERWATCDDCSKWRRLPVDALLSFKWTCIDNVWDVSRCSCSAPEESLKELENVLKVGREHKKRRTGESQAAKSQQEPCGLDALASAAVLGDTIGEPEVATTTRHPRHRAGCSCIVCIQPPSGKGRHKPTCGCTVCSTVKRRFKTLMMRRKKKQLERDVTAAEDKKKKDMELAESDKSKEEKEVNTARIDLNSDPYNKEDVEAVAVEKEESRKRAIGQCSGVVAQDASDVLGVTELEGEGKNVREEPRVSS
Experiment: affinity purification with mass spectrometry; anti-HA (Roche) on Dynabeads Protein A, overnight at 4°C in IP buffer (20mM Tris-HCl pH 8, 150mM NaCl, 2.5mM EDTA, 0.5% Triton); tissue of VAL1-HA; val1-2; FRI-Sf2 plants at 1, 2 and 3 weeks, val1-2; fri as control

binding: binds
Molecule: ATBMI1A

binding: no binding
B1: chloroplast binding protein CRB (protein, UniProt Q9SA52 51-378)
chain: SSEKKILIMGGTRFIGLFLSRILVKEGHQVTLFTRGKSPIAKQLPGESDQDFADFSSKILHLKGDRKDYDFVKSSLSAEGFDVVYDINGREAEEVEPILEALPKLEQYIYCSSAGVYLKSDILPHCEEDAVDPKSRHKGKLETESLLQSKGVNWTSIRPVYIYGPLNYNPVEEWFFHRLKAGRPIPVPNSGIQISQLGHVKDLATAFLNVLGNEKASREIFNISGEKYVTFDGLAKACAKAGGFPEPEIVHYNPKEFDFGKKKAFPFRDQHFFASVEKAKHVLGWKPEFDLVEGLTDSYNLDFGRGTFRKEADFTTDDMILSKKLVLQ

No constants are given. Whether binding was seen depends on the method and setting. Binding seen in cells or lysates may run through a third protein. A yes stands for co-enrichment or nearness to the bait. Other partners may have been found. A no says only that the protein was not detected with the bait. Tags and fused reporters may be left off the sequences shown. One block for each molecule: values may come before it.
